For the assay, the target named is recombinant human c-MET kinase enzyme domain (Homo sapiens, UniProt P08581). Description: c-MET receptor tyrosine kinase Homogeneous Time Resolved Fluorescence assay (HTRF). Conditions: read-out: Biological Activity in Biological Example 1 and/or 2 (mean IC50), Biological Example 1 and/or Biological Example 2. An excerpt: Recombinant c-Met kinase domain (amino acids 960-1390) was produced in a baculovirus expression vector as an N-terminal His-tagged fusion protein and purified on a NiNTA column. The resulting purified enzyme was then used in the following c-Met Homogeneous Time Resolved Fluorescence assay (HTRF) to find compounds of the invention and to perform initial activity determinations. Specifically, this assay measures the ability of compounds of the invention to inhibit the phosphorylation of a randomly synthesized, biotinylated heterocopolymeric polypeptide composed of glutamic acid and tyrosine, with an average length of 100 aa. The assay analyzes the amount of phosphorylated polypeptide produced. […]
The formation of phosphorylated heterocopolymeric, biotinylated polypeptide was quantified with the HTRF assay technology using an anti-phosphotyrosine antibody, PT66, conjugated to europium cryptate, mixed with a streptavidin-XL665 conjugate. […]
Background: Time-resolved FRET reads energy transfer from a long-lived donor to a nearby acceptor.

The chains behind the UniProt entries cited, without tags or fusion partners. Residues count along the entry.
UniProt P08581, 960-1390 limits assumed: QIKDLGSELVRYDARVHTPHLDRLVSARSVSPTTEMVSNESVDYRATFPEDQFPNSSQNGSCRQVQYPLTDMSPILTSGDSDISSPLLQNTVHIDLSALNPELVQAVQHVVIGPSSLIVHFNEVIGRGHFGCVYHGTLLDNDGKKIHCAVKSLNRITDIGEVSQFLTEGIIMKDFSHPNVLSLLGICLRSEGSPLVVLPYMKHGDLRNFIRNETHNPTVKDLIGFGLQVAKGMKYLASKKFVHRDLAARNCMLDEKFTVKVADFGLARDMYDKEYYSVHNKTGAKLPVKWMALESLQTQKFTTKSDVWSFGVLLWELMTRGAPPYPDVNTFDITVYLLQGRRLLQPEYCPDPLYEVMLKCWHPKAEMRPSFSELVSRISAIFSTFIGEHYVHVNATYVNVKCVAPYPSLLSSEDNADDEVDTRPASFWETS

pIC50: −log10 of the molar value. The match of structure and compound is tentative. Where only a bound is given, the exact number is not on record here.

`CC1=C(C#N)C(c2ccc3[nH]ncc3c2)C(C#N)=C(c2ccc(C(=O)O)cc2)N1` (centres unmarked): the pIC50 is more than 7.00. On to `CC1=C(C#N)C(c2ccc3c(c2)c(N)nn3Cc2ccc(N)cc2)C(C#N)=C(C)N1`, for which the pIC50 is 5.60 to 6.30.

The values are drawn from patent US8198456B2, “Dihydropyridine derivatives as useful as protein kinase inhibitors” (Bayer Intellectual Property GmbH, priority 2006, dated 2012).
